What follows is the remainder of the data, with few or none of the targets with a hit. Single values of this set are uncertain. Only a part is listed here, and it is no random draw.
These targets were tested with COC(=O)/C=C/c1ccccc1 [methyl cinnamate] (assay: log2 ratio of iodoacetamide-alkyne labeling of the cysteine site, DMSO over compound (competition); higher = stronger covalent engagement of the cysteine by the compound, active = 1 or more). Conditions: 500 µM; treatment time 1 h; system: HEK293T cell lysate.
Outline: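 HEK293T lysate (2 mg/mL) was incubated with electrophile (500 µM) or vehicle for 1 h at ambient temperature and then with iodoacetamide alkyne for 1 h. Labelled proteins were clicked to sCIP-TMT reagents, pooled, digested, enriched on streptavidin and measured by Orbitrap Eclipse LC-MS/MS with FAIMS, with FragPipe quantification. The per-cysteine log2 competition ratio is mean control-channel reporter intensity over mean compound-channel reporter intensity. Across three replicates with duplicate channels, cysteines quantified in only one replicate were excluded.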

By UniProt entry, the sequences of proteins in these tests, tags left out. Where a name states a change or a piece, a line headed by the entry shows the natural chain unless it says otherwise.
UniProt Q9Y4Z0: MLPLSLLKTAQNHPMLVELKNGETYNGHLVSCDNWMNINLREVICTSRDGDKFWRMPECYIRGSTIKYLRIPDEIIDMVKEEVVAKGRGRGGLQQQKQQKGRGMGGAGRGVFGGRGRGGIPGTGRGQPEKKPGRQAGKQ
UniProt Q9Y597: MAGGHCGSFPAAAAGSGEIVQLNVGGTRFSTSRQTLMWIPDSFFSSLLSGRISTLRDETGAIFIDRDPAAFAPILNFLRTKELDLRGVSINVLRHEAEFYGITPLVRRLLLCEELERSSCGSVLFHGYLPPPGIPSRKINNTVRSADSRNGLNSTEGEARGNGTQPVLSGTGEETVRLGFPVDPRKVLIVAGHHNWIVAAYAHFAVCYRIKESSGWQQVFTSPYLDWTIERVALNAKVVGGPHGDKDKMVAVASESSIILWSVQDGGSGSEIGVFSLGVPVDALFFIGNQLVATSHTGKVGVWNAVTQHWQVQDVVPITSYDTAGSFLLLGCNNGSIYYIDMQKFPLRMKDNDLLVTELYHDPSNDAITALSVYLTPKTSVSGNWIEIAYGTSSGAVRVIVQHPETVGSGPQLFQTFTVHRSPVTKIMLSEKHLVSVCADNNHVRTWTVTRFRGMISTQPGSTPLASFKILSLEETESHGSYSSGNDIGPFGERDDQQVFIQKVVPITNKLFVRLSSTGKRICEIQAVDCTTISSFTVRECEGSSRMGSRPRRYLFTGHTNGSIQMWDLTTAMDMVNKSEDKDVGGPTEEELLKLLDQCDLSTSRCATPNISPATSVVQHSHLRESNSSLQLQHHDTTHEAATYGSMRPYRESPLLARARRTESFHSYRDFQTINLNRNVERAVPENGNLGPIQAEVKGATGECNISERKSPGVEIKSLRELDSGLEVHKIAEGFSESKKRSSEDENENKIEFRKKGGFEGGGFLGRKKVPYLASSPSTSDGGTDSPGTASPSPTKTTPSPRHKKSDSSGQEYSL
UniProt Q9Y4W2: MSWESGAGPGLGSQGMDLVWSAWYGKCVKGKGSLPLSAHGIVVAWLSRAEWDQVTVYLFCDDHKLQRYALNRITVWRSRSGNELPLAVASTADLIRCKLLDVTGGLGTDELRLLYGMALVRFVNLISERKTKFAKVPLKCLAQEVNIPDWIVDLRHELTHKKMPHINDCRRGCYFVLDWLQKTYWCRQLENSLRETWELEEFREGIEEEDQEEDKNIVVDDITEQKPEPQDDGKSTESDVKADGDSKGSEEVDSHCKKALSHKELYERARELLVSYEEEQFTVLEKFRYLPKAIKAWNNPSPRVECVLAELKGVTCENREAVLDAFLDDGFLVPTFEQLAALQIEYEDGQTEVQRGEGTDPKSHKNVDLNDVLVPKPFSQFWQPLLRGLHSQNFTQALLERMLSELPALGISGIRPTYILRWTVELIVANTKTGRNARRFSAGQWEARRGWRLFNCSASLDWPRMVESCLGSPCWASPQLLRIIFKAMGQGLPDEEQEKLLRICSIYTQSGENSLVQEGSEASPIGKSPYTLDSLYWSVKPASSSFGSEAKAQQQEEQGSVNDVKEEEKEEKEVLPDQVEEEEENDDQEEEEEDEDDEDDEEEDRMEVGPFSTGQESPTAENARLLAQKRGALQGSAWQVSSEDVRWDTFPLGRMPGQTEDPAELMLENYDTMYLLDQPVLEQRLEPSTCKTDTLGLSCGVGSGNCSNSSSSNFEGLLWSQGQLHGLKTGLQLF
UniProt Q9Y490: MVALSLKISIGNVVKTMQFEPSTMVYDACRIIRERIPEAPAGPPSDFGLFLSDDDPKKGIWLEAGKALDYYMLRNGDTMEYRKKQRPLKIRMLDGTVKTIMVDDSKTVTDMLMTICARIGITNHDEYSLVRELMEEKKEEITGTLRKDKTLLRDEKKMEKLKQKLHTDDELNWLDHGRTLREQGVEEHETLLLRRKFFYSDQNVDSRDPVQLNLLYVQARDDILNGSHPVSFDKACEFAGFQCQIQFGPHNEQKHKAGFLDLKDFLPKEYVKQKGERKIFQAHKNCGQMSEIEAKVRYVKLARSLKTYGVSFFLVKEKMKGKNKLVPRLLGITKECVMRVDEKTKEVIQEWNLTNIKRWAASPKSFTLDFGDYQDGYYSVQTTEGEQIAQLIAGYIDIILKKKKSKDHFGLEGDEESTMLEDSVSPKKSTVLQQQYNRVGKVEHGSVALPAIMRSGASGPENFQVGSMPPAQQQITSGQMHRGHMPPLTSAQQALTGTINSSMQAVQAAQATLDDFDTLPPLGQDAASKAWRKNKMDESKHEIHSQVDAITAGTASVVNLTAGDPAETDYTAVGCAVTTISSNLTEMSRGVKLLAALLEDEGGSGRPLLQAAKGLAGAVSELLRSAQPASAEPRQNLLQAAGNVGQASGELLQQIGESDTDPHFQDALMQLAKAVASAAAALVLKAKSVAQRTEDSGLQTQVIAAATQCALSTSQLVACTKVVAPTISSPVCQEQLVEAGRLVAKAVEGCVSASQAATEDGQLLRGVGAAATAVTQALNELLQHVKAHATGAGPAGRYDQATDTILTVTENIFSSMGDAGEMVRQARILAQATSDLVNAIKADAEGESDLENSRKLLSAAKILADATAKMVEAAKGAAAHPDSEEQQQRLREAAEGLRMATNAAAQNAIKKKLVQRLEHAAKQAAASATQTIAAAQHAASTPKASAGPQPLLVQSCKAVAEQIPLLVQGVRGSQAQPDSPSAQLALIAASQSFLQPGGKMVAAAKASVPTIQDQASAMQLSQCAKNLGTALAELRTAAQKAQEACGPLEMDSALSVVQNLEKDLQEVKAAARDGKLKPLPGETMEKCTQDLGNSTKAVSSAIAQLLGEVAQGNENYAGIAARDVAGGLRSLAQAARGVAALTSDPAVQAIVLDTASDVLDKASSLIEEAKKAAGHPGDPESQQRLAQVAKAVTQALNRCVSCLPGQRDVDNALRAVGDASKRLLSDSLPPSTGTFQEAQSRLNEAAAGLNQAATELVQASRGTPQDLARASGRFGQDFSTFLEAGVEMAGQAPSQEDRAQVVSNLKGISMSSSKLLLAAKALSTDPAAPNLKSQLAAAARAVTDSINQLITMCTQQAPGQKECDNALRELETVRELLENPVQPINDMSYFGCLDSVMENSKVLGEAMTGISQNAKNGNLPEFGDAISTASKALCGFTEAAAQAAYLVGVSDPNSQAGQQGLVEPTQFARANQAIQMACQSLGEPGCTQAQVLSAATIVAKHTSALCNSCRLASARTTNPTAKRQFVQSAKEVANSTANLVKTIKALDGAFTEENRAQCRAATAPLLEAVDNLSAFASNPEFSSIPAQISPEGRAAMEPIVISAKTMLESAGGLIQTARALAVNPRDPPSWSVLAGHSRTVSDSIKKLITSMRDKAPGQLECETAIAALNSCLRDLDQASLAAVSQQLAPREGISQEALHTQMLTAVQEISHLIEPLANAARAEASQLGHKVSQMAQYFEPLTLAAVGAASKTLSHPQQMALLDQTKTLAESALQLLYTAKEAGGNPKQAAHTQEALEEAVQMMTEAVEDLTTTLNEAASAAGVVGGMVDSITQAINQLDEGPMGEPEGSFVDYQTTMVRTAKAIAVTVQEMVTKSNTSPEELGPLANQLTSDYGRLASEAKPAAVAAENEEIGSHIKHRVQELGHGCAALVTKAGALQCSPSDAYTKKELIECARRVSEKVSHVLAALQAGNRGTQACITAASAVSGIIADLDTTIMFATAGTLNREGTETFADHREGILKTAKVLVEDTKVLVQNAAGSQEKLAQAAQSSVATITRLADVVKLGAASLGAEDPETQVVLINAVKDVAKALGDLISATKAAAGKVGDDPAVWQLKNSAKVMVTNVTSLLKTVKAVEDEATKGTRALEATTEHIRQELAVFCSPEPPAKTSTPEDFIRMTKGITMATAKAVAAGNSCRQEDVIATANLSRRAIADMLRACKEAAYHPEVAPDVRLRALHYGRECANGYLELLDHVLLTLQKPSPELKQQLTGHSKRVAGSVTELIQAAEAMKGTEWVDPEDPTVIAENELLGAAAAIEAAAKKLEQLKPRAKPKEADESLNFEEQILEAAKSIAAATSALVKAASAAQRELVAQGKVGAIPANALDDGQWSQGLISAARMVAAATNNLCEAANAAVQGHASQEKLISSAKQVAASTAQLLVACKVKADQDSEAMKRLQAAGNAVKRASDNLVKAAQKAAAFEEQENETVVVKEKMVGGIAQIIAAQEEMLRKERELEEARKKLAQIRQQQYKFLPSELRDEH
UniProt Q9Y4R8, whole entry, looked up: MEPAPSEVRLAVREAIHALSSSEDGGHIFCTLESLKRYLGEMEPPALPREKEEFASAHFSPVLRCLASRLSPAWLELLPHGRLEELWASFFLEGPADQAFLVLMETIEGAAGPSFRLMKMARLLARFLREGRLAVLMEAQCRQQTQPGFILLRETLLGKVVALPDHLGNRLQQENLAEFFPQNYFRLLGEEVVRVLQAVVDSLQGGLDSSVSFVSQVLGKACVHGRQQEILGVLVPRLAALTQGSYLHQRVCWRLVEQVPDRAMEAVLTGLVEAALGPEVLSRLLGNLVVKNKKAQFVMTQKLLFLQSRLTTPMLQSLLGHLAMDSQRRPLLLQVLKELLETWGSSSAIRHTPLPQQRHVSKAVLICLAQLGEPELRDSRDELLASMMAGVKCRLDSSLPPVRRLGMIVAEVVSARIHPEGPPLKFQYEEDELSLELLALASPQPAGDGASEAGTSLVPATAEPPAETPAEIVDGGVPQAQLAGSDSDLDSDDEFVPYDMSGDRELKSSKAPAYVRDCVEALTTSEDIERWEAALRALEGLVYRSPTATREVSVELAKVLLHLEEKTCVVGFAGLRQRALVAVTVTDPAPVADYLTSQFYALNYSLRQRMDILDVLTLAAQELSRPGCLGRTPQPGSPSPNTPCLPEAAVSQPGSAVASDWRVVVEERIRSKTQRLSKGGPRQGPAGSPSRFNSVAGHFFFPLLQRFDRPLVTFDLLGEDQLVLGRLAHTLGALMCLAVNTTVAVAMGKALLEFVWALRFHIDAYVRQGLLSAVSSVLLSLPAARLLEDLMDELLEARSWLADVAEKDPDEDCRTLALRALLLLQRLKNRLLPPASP
UniProt Q9Y696: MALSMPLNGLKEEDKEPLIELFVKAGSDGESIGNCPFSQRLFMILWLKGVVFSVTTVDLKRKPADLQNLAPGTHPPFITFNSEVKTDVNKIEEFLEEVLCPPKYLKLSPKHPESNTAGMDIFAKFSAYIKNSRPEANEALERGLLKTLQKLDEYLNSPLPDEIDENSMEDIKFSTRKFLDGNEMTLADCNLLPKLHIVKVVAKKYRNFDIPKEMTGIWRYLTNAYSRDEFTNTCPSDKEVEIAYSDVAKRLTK
UniProt Q9Y4C2: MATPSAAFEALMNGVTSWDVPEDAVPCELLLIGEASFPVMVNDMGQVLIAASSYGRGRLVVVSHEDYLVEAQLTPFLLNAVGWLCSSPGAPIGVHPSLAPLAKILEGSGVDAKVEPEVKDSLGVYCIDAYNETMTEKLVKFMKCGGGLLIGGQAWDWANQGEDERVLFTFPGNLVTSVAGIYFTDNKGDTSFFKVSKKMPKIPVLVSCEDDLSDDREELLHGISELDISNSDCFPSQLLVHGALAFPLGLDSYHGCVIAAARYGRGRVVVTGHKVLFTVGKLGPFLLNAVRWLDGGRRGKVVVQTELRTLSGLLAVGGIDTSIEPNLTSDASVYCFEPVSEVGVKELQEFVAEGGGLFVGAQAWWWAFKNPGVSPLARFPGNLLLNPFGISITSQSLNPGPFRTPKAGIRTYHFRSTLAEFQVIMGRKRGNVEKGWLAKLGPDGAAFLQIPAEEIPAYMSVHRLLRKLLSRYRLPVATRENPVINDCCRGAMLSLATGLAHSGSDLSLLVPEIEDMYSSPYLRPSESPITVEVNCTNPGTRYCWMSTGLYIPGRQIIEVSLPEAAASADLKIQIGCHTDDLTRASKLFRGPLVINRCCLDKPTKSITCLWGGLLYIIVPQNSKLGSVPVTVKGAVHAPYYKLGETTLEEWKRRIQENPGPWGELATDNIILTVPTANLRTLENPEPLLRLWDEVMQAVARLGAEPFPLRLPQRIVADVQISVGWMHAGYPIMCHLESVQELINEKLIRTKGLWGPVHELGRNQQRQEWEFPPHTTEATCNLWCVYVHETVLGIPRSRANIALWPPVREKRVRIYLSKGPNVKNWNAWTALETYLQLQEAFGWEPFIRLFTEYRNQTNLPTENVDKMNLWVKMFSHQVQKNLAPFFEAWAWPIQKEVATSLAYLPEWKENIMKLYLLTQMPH
UniProt Q9Y5P6: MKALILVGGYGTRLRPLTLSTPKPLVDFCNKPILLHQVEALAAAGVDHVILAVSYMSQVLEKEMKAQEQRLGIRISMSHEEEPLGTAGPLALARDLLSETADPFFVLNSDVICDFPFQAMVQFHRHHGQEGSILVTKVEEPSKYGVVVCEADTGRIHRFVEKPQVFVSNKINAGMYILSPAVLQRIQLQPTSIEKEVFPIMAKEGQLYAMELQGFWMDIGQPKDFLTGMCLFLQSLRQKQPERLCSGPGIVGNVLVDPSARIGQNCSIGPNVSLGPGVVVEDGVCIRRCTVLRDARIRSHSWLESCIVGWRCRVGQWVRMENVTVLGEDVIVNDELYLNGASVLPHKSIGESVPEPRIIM

log2 ratio of iodoacetamide-alkyne labeling, inactive:
LSM4 C45 (UniProt Q9Y4Z0) 0.267
SNX9 C252 (UniProt Q9Y5X1) -0.107
KCTD3 C606 (UniProt Q9Y597) 0.246
UniProt Q9Y520_C2340 0.384
LAS1L C699 (UniProt Q9Y4W2) 0.162
TLN1 C2243 (UniProt Q9Y490) 0.0684
GTF3C5 C411 (UniProt Q9Y5Q8) 0.0765
TELO2 C644 (UniProt Q9Y4R8) 0.34
SAMM50 C65 (UniProt Q9Y512) -0.208
TLN1 C732 (UniProt Q9Y490) 0.427
TELO2 C367 (UniProt Q9Y4R8) -0.306
CLIC4 C100 (UniProt Q9Y696) 0.0409
UniProt Q9Y6E0_C375 0.244
TLN1 C1939 (UniProt Q9Y490) 0.471
AIM1 C976 (UniProt Q9Y4K1) 0.0837
TCAF1 C144 (UniProt Q9Y4C2) 0.248
TLN1 C956 (UniProt Q9Y490) 0.315
USP15 C264 (UniProt Q9Y4E8) 0.415
ARFGEF2 C1147 (UniProt Q9Y6D5) 0.0989
TAF6L C81 (UniProt Q9Y6J9) -0.129
TCAF1 C488 (UniProt Q9Y4C2) 0.213
MORC2 C962 (UniProt Q9Y6X9) 0.149
TACC3 C20 (UniProt Q9Y6A5) 0.451
TELO2 C628 (UniProt Q9Y4R8) -0.232
MAP3K4 C163 (UniProt Q9Y6R4) -0.326
TELO2 C30 (UniProt Q9Y4R8) 0.208
UniProt Q9Y520_C481 0.592
GMPPB C230 (UniProt Q9Y5P6) 0.0759
AFG3L2 C313 (UniProt Q9Y4W6) 0.0347
PPME1 C386 (UniProt Q9Y570) 0.241

Two records picked at random from the list so far:
log2 ratio of iodoacetamide-alkyne labeling, inactive:
TCAF1 C488 (UniProt Q9Y4C2) 0.213
SAMM50 C65 (UniProt Q9Y512) -0.208

Source: the supplement of paper PMC11006884
